Values from PubChem BioAssay AID1259424 (University of Nebraska Medical Center, 2018).
The deposit covers about 14,000 reagents; shown is a random part of them. 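Higher correlation or smaller distance means closer resemblance to KSR1 loss; control wells, including KSR1 knockdowns, recur on many plates.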 Further read-outs or replicates are left out here. Not given: the time to read-out.

Test: 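Rank knockdowns across the genome by resemblance to the KSR1 depletion profile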 (primary screen)
Cells: human HCT116 colon cancer cells
Reagents: siRNA pool against human genes, 50 nM
Measurement: 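Six signature mRNAs by branched-DNA multiplex assay, scaled to two housekeeping genes and non-targeting median, log2; matched to mean KSR1 knockdown profile by Pearson correlation and euclidean distance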
Scale: mean correlation with KSR1 profile: higher = expression change more like KSR1 knockdown

With PHGDH, how do the results read?
mean correlation with KSR1 profile: 0.25

For DEPDC1B, what was measured?
mean correlation with KSR1 profile: -0.307

What is on record for RBM4B?
mean correlation with KSR1 profile: 0.613

For ITLN1, how do the results read?
mean correlation with KSR1 profile: -0.0587

What is on record for NRG2?
mean correlation with KSR1 profile: -0.441

With NMUR2, how do the results read?
mean correlation with KSR1 profile: 0.248

With EIF5, how do the results read?
mean correlation with KSR1 profile: -0.301

With CIB3, what was measured?
mean correlation with KSR1 profile: 0.041

How did the screen score ATP6V0B?
mean correlation with KSR1 profile: -0.531

What is on record for ENTPD1?
mean correlation with KSR1 profile: -0.09

For IQCE, what was measured?
mean correlation with KSR1 profile: -0.376

How did the screen score USP42?
mean correlation with KSR1 profile: -0.122
